# Literature values, collected in patent publication US11052069B2, “Regimes of FXR agonists” (NOVARTIS AG, priority 2016, dated 2021).
# At least one compound was matched to its structure with a doubt left.
# Test system: nonalcoholic steatohepatitis patients
# Details: human, in vivo; cited from earlier work
smiles,measurement,value
"CC[C@H]1[C@@H](O)[C@@H]2[C@H](CC[C@]3(C)[C@@H]([C@H](C)CCC(=O)O)CC[C@@H]23)[C@@]2(C)CC[C@@H](O)C[C@@H]12 [OCA, Obeticholic acid]",NAS,significant improvement in NAS
